Experimental data from patent US20180200257A1, “METHODS FOR THE TREATMENT OF INFLAMMATORY DISORDERS” (Galapagos NV, priority 2015, published 2018).
The source gives many values for each of these; only a part stands here.

Tested on: subjects with moderately to severely active RA who have an inadequate response to methotrexate (MTX)
Experiment: Study 1 (add-on to MTX) - Subject VAS mean changes (ACR patient assessment)
Assay type: in vivo, human
Conditions: 24 weeks results
Procedure: The scale is 100 mm, the decrease in mm is shown. […] (dotted line), 100 mg q.d. (dashed line) or 200 mg q.d. (dark solid line). […] The results shown in the figures are calculated using Last-Observation-Carried-Forward (LOCF), which handles missing data by assigning the value recorded at the patient's last visit to all subsequent missed visits.
Double-blind, placebo-controlled add on study in subjects with moderately to severely active RA who have an inadequate response to methotrexate (MTX) (oral or parenteral).
595 subjects randomized to one of 6 dose regimens of Compound 1 (dosed as [Compound 1:HCl:3H2O]) (3 dose levels administered either once or twice daily) or placebo on top of each subject's stable dose of MTX.
Compound 1 (dosed as [Compound 1:HCl:3H2O]) is dosed for twelve weeks once daily (q.d.) (50 mg, 100 mg or 200 mg) or twice daily (b.i.d.) (25 mg, 50 mg or 100 mg); or placebo.
At Week 12, the subjects on placebo who have not achieved 20% improvement in swollen joint count (SJC66) and tender joint count (TJC68) are re-randomized automatically to receive Compound 1 (dosed as a [Compound 1:HCl:3H2O]) either at 100 mg q.d. or 50 mg b.i.d. doses in a blinded fashion; subjects on 50 mg q.d. who have not achieved 20% improvement in SJC66 and TJC68 will be assigned to 100 mg q.d. and subjects on 25 mg b.i.d. that have not achieved a 20% improvement in SJC66 and TJC68 will be assigned to 50 mg b.i.d. Subjects who switch treatment at week 12 are handled as if they discontinued at week 12 for the purpose of statistical analysis, whereas subjects in the other groups will maintain their randomized treatment until Week 24.
Firstly, the patient is asked to make a vertical mark on a 100 mm Visual Analog Scale (VAS) corresponding to their general health or global disease activity on a touch screen to measure the VAS value, which is used in the formula below.
The American College of Rheumatology (ACR) composite score, which evaluates clinical improvement relative to an initial assessment, is a commonly accepted efficacy end point for clinical trials in patients with rheumatoid arthritis. The ACR score correspond to a percentage improvement in pre-set parameters, and therefore measures the evolution of the disease in a patient. For example, ACR20 denotes at least 20% improvement in tender and swollen joint counts and in three of the following end points: global assessment by the patient, global assessment by the doctor, C reactive protein (CRP), patient's pain Visual Analogue Scale and Health Assessment Questionnaire Score. The number of swollen joints, ESR and CRP correlate with radiographic progression of joint damage, whereas tender joint counts, as well as global assessments by doctors and patients, and patients' reports of pain, are sensitive to change in clinical outcomes. Physical function, as assessed by the Health Assessment Questionnaire Score, is a potent predictor of the risk of disability in rheumatoid arthritis (Felson and American College of Rheumatology Committee to Reevaluate Improvement Criteria, 2007; Felson et al., 1993).

O=C(Nc1nc2cccc(-c3ccc(CN4CCS(=O)(=O)CC4)cc3)n2n1)C1CC1 [Compound 1, cyclopropanecarboxylic acid {5-[4-(1,1-dioxo-thiomorpholin-4-ylmethyl)-phenyl]-[1,2,4]triazolo[1,5-a]pyridin-2-yl}-amide]
Subject VAS mean changes (ACR patient assessment) (50 mg q.d., week 1, LOCF): −11.2 | Subject VAS mean changes (ACR patient assessment) (100 mg q.d., week 1, LOCF): −12.9 | Subject VAS mean changes (ACR patient assessment) (200 mg q.d., week 1, LOCF): −16.7 | Subject VAS mean changes (ACR patient assessment) (2 × 25 mg b.i.d., week 1, LOCF): −8.2 | Subject VAS mean changes (ACR patient assessment) (2 × 50 mg b.i.d., week 0, LOCF): 0.0 | Subject VAS mean changes (ACR patient assessment) (2 × 50 mg b.i.d., week 1, LOCF): −8.7 | Subject VAS mean changes (ACR patient assessment) (2 × 100 mg b.i.d., week 0, LOCF): 0.0 | Subject VAS mean changes (ACR patient assessment) (2 × 100 mg b.i.d., week 1, LOCF): −20
